In PMC10870380:
Results are given in words; binding and its absence hold for the method and conditions named. Binding seen in cells or lysates may run through a third protein. Some binding calls cover weakened binding; strength is not graded here.

Protein sequences, listed by entry. Tags and fused reporters are not part of them.
UniProt O95639: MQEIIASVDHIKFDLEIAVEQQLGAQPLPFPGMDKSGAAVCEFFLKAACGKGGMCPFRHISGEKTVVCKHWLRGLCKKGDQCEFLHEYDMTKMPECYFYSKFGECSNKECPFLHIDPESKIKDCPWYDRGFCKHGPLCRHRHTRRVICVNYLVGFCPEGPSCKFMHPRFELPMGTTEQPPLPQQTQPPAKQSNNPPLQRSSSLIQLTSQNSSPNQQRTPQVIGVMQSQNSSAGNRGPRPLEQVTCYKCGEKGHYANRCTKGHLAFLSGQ

Molecular target: CPSF4 (human (endogenous in human pancreatic cell lines; the line used for the IP is not stated)) (UniProt O95639)
Experiment: co-IP; immunoprecipitation of CPA complexes from cells with CPSF3 knockdown or control, or with CPSF3 inhibition (JTE-607); the amount bound decreases upon knockdown and is not affected by inhibition

Binder | binding
CPSF2 (protein, UniProt Q9P2I0 1-782) MTSIIKLTTLSGVQEESALCYLLQVDEFRFLLDCGWDEHFSMDIIDSLRKHVHQIDAVLLSHPDPLHLGALPYAVGKLGLNCAIYATIPVYKMGQMFMYDLYQSRHNTEDFTLFTLDDVDAAFDKIQQLKFSQIVNLKGKGHGLSITPLPAGHMIGGTIWKIVKDGEEEIVYAVDFNHKREIHLNGCSLEMLSRPSLLITDSFNATYVQPRRKQRDEQLLTNVLETLRGDGNVLIAVDTAGRVLELAQLLDQIWRTKDAGLGVYSLALLNNVSYNVVEFSKSQVEWMSDKLMRCFEDKRNNPFQFRHLSLCHGLSDLARVPSPKVVLASQPDLECGFSRDLFIQWCQDPKNSIILTYRTTPGTLARFLIDNPSEKITEIELRKRVKLEGKELEEYLEKEKLKKEAAKKLEQSKEADIDSSDESDIEEDIDQPSAHKTKHDLMMKGEGSRKGSFFKQAKKSYPMFPAPEERIKWDEYGEIIKPEDFLVPELQATEEEKSKLESGLTNGDEPMDQDLSDVPTKCISTTESIEIKARVTYIDYEGRSDGDSIKKIINQMKPRQLIIVHGPPEASQDLAECCRAFGGKDIKVYMPKLHETVDATSETHIYQVRLKDSLVSSLQFCKAKDAELAWIDGVLDMRVSKVDTGVILEEGELKDDGEDSEMQVEAPSDSSVIAQQKAMKSLFGDDEKETGEESEIIPTLEPLPPHEVPGHQSVFMNEPRLSDFKQVLLREGIQAEFVGGVLVCNNQVAVRRTETGRIGLEGCLCQDFYRIRDLLYEQYAIV | binds
cleavage and polyadenylation specificity factor 3 (enzyme, UniProt Q9UKF6 1-684) MSAIPAEESDQLLIRPLGAGQEVGRSCIILEFKGRKIMLDCGIHPGLEGMDALPYIDLIDPAEIDLLLISHFHLDHCGALPWFLQKTSFKGRTFMTHATKAIYRWLLSDYVKVSNISADDMLYTETDLEESMDKIETINFHEVKEVAGIKFWCYHAGHVLGAAMFMIEIAGVKLLYTGDFSRQEDRHLMAAEIPNIKPDILIIESTYGTHIHEKREEREARFCNTVHDIVNRGGRGLIPVFALGRAQELLLILDEYWQNHPELHDIPIYYASSLAKKCMAVYQTYVNAMNDKIRKQININNPFVFKHISNLKSMDHFDDIGPSVVMASPGMMQSGLSRELFESWCTDKRNGVIIAGYCVEGTLAKHIMSEPEEITTMSGQKLPLKMSVDYISFSAHTDYQQTSEFIRALKPPHVILVHGEQNEMARLKAALIREYEDNDEVHIEVHNPRNTEAVTLNFRGEKLAKVMGFLADKKPEQGQRVSGILVKRNFNYHILSPCDLSNYTDLAMSTVKQTQAIPYTGPFNLLCYQLQKLTGDVEELEIQEKPALKVFKNITVIQEPGMVVLEWLANPSNDMYADTVTTVILEVQSNPKIRKGAVQKVSKKLEMHVYSKRLEIMLQDIFGEDCVSVKDDSILSVTVDGKTANLNLETRTVECEEGSEDDESLREMVELAAQRLYEALTPVH | binds
